Primary screen of a compound library

Chains of the proteins cited; added tags and fusions are not shown. Residues count along the entry.
UniProt P9WNZ1, whole entry: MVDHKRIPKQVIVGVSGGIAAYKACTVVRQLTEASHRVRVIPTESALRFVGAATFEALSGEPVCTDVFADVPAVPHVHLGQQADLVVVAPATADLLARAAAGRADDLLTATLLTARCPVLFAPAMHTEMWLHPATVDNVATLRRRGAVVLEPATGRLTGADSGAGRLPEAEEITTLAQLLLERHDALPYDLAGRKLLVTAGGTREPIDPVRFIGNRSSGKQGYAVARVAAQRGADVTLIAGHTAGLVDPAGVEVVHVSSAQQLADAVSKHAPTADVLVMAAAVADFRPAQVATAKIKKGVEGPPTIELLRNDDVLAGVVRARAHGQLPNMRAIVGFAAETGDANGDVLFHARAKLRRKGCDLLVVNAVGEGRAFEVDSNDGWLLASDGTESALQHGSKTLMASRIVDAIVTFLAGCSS
UniProt P9WFT3, whole entry: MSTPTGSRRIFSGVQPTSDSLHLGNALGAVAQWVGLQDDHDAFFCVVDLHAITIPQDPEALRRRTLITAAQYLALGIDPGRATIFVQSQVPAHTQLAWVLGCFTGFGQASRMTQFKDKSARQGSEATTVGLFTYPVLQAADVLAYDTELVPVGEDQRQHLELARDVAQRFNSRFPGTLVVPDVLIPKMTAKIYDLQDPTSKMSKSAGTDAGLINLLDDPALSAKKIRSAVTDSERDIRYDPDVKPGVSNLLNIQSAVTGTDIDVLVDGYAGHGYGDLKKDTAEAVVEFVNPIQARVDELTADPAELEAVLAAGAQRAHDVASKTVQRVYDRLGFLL
UniProt P9WPC5, whole entry: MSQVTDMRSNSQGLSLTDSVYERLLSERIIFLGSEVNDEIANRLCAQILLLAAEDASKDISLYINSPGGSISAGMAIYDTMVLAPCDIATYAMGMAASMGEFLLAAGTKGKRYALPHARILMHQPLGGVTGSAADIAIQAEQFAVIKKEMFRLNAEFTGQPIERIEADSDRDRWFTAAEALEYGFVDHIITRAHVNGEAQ
UniProt P9WPC3, whole entry partner: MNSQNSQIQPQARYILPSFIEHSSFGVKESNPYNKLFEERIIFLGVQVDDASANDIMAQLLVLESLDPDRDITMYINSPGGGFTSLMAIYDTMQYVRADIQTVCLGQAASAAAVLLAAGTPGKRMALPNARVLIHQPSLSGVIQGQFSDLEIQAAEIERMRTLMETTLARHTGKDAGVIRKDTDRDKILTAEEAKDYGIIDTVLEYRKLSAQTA
UniProt A4I591, 1-473: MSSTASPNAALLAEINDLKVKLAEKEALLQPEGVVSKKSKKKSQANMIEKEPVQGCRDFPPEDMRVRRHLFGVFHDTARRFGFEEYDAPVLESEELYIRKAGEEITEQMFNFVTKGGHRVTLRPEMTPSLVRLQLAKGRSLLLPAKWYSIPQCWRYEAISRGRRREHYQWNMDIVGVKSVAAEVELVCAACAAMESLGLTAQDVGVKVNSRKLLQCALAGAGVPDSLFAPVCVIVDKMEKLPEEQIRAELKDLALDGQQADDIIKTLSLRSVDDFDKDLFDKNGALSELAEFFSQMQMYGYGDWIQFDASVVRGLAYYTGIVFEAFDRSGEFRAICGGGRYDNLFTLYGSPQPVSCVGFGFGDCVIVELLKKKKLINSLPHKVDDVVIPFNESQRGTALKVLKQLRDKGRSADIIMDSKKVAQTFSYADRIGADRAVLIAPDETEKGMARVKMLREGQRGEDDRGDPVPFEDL
UniProt Q4DA54, 1-478: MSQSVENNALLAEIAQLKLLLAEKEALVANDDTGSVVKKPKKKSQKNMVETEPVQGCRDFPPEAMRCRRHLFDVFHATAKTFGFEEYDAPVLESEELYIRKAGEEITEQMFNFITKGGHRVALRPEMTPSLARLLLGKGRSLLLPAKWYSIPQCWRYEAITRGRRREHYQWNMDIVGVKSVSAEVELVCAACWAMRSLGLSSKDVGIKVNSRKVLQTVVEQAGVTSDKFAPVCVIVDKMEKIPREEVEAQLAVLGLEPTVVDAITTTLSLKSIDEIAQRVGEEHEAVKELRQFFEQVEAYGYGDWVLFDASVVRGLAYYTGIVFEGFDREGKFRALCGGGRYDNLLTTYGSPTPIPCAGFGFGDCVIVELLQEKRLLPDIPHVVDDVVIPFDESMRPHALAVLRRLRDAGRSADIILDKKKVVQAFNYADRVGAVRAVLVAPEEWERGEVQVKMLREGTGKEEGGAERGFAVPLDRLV

The values are deposited in ChEMBL (CHEMBL3988442, “University of Dundee, Small-Polar-MMV Screening Library” (2021)).

CoaBC: 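Enzyme assay of CoaBC with a phosphate dye (Biomol Green) read at 650 nm. Target: Coenzyme A biosynthesis protein CoaBC, Mycobacterium tuberculosis (UniProt P9WNZ1). Concentration: 30 µM. Higher reads as stronger inhibition, judged from the few compounds that gave an IC50. Most strong results did not repeat in a second test. About 67,000 compounds were tested under these conditions; 0.06% (about 40) showed 50% or more at least once.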
MtTrpRS: 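Enzyme assay of tryptophanyl-tRNA synthetase; the read-out is not stated. Target: Tryptophan-tRNA ligase, Mycobacterium tuberculosis (UniProt P9WFT3). Tested at 10 µM. Higher most likely means stronger inhibition; the record gives no direction and few retests gave an IC50. Of about 65,000 compounds tested this way, about 64 (0.098%) reached 50% or more in at least one test.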
ClpP1P2: 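ClpP1P2, Mycobacterium tuberculosis (UniProt P9WPC5 and UniProt P9WPC3). Protease assay of ClpP1P2, read by the AMC dye that it sets free. Concentration: 50 µM. Higher reads as stronger inhibition, judged from the few compounds that gave an IC50. Most other retested compounds had strongly negative values. Of about 69,000 compounds tested this way, about 10 (0.015%) reached 50% or more in at least one test.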
LiHisRS: 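Enzyme assay of histidyl-tRNA synthetase; the read-out is not stated. Target: Histidine-tRNA ligase, Leishmania infantum (UniProt A4I591). Tested at 30 µM. Direction is inferred from retests: higher values go with stronger inhibition. The assay is labelled LdHisRS but filed under L. infantum. About 69,000 compounds were tested under these conditions; 0.6% (about 410) showed 50% or more at least once.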
TcHisRS: 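Enzyme assay of histidyl-tRNA synthetase; the read-out is not stated. Target: Histidine-tRNA ligase, Trypanosoma cruzi CL Brener (UniProt Q4DA54). Tested at 30 µM. Higher reads as stronger inhibition (inferred: compounds with an IC50 in retests scored well above the rest). About 69,000 compounds were tested under these conditions; 0.045% (about 31) showed 50% or more at least once.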

Values are the deposited “Percent Effect”, in %. How 0% and 100% were set is not recorded. Most values in the screen are low, and negative values occur. This is an unselected part of the compounds tested. Two or more numbers in one place are separate tests of the same structure; such repeats can differ widely. A dash means the value is not listed here; it may have been measured.

| # | SMILES | CoaBC | MtTrpRS | ClpP1P2 | LiHisRS | TcHisRS |
|---|---|---|---|---|---|---|
| 1 | `CNC(=O)N1CCOCC1c1c(C)nn(C)c1C` (configuration not stated) | 3.563% | -1.067% | 16.48% | 12.4% | 15.48% |
| 2 | `Cc1nn(C)c(Cl)c1C(=O)NCc1cccnc1N1CCOCC1` | 14.05% | 1.943% | 21.04% | 20.21% | 12.06% |
| 3 | `CC(C)N1CCCC2(CCN(C(=O)CCCn3ccnc3)C2)C1=O` (configuration not stated) | -1.316% | 0.5848% | -7.284% | 17.14% | 0.8264% |
| 4 | `CCN1CCN(CCCNC(=O)NC(C)c2nncn2C)CC1` (configuration not stated) | 3.571% | 3.483% | 10.44% | 10.91% | 2.924% |
| 5 | `CC(OCC(F)(F)F)C(=O)N1CCCC1` (configuration not stated) | 1.665% | 1.671% | -2.177% | 0% | -0.6135% |
| 6 | `Cc1cc(C)cc(N2CCN(Cc3cccc(CCN)c3)CC2=O)c1` | -44.81% | -4.026% | -13.49% | 8.197% | 5.6% |
| 7 | `CN(C)CCn1ccnc1C1CCN(C(=O)CCC(F)(F)F)CC1` | -0.1248% | 0.3127% | -8.859% | 13.22% | 9.184% |
| 8 | `Cc1nn(-c2ccccc2Cl)c(C)c1CCC(=O)O` | 3.398% | - | -9.947% | 3.96% | 4.545% |
| 9 | `CN(Cc1cnc(N)nc1)C(=O)c1coc(COc2cccc(F)c2)n1` | 4.034% | 0.08376% | 3.382% | 16.81% | 2.4% |
| 10 | `Nc1nc(N)c2c(n1)OC1(CCCN(Cc3nccs3)CC1)C2` (configuration not stated) | 1.051% | -9.261% | 1.235% | 13.04% | 4.545% |
| 11 | `CN(Cc1cccnc1)Cc1cncc2c1CCN(c1ccccn1)C2` | 1.235% | - | 3.835% | 17.27% | 6.349% |
| 12 | `FC(F)(F)Oc1ccc(-c2c[nH]c([C@@H]3COCCN3)n2)cc1` | 16.7% | -4.958% | -9.631% | 24.32% | -0.4975% |
| 13 | `COCc1nc(C(=O)N2CCCC(n3ccnc3)C2)cs1` (configuration not stated) | 5.257% | -7.397% | -21.81% | -3.846% | 1.714% |
| 14 | `CNc1ccc(CC2CCCN(C(=O)c3cncnc3C)C2)nn1` (configuration not stated) | 0.9162% | -0.9167% | -1.648% | 14.29% | 6.452% |
| 15 | `CC(C)N(C)[C@@H]1CCN(Cc2ccoc2)[C@H]1Cc1ccccc1` | - | -2.913% | -2.072% | 15.52% | 3.797% |
| 16 | `COc1ccccc1C(=O)N1CCN(C(=O)Cc2ccccn2)CC1` | 7.761% | -4.601% | 26.45% | -9.565% | -1.127% |
| 17 | `COCCC(=O)N[C@H]1CC[C@H](Nc2nccc(-c3ccncc3)n2)C1` | 2.036% | 0.5882% | -8.512% | 17.95% | -8.434% |
| 18 | `O=C(CCCNCc1ccccc1)N1CCCn2cncc2C1` | 4.545% | 5.153% | -13.65% | 13.11% | -0.8% |
| 19 | `CSc1ccc(CN2CCCC3(CNC(=O)c4ccccc4O3)C2)cc1` (configuration not stated) | 5.392% | - | -0.2885% | 13.54% | -8.511% |
| 20 | `c1cncc(CO[C@H]2CO[C@@]3(CCN(Cc4ccoc4)C3)C2)c1` | 7.133% | -0.402% | 7.114% | 3.883% | -0.5464% |
| 21 | `CCc1nc(CNC(C)Cn2cccn2)cs1` (configuration not stated) | 5.575% | -3.521% | 12.76% | 21.43% | 1.504% |
| 22 | `COCC(=O)N1C[C@@H](CN2CCCN(C)CC2)[C@@H](CO)C1` | 2.03% | -1.227% | -15.04% | 22.35% | 3.139% |
| 23 | `NC(c1ccc(Cl)cc1)c1cccs1` (configuration not stated) | - | -1.135% | 6.593% | 22.86% | 5.195% |
| 24 | `Cc1cccc(C(=O)N2CCCC[C@]3(C)NC(=O)CCC[C@H]23)n1` | 10.22% | -0.9855% | 12.11% | 13.68% | 8.209% |
| 25 | `O=C(c1ccco1)N1CCC(n2cc(-c3ccsc3)nn2)CC1` | -2.337% | 2.342% | -10.02% | 19.35% | 4.598% |
| 26 | `O=C(Nc1cccnc1)[C@@H]1CCO[C@@H]2CCN(Cc3cccnc3)C[C@@H]21` | 3.509% | -1.245% | -3.511% | 23.08% | 4.878% |
| 27 | `O=C(CC1CCCCC1)NC1CCCc2nc(N3CCOCC3)ncc21` (configuration not stated) | -0.9804% | - | -14.2% | 5.208% | 2.128% |
| 28 | `COC(=O)C(C)NC(=O)CSCc1nc(O)c2cc(C(C)C)sc2n1` (configuration not stated) | 1.927% | 7.895% | 6.573% | 10% | 4.545% |
| 29 | `CC(C)C(=O)N1CCC2(CCCN(CCOc3ccccc3)C2)C1` (configuration not stated) | 1.935% | 0.9924% | 8.7% | 12.2% | 3.008% |
| 30 | `CNC(=O)CN1CCO[C@H]2CN(CC3CCOC3)C[C@H]21` (some centres not stated) | 8.402% | -9.515% | -1.841% | 22% | 5.747% |
| 31 | `Cc1nccn1-c1ccc(NC(=O)C2CCCN2Cc2c[nH]cn2)cc1` (configuration not stated) | 4.628% | 12.01% | -5.258% | -5.128% | 0.5618% |
| 32 | `C[C@@H]1CN(S(=O)(=O)N2CCCC2)C[C@@]1(O)C1CC1` | 3.846% | -3.498% | -13.4% | 6.838% | 4.865% |
| 33 | `CC(=O)N1CCC2(CCCN(C(=O)c3ccccc3)C2)C1` (configuration not stated) | 13.73% | -5.639% | 2.046% | 2.19% | 3.825% |
| 34 | `O=C(NCCN1CCOCC1)c1cnc(-c2ccccc2F)s1` | 3.883% | -4.706% | -13.29% | 24.1% | 7.182% |
| 35 | `CC(C)N(CCCNC(=O)C1CC(=O)N(C)C1)S(C)(=O)=O` (configuration not stated) | 1.141% | -1.016% | -9.53% | -8.861% | 3.017% |
| 36 | `COc1cc(OCC(=O)NCCc2ccccc2)cc(OC)c1OC` | 5.817% | -1.876% | -13.55% | 1.149% | 2.062% |
| 37 | `O=C(CCn1ccnc1)N1CCCC(n2cncn2)C1` (configuration not stated) | -18.32% | 1.354% | -16.47% | 1.667% | -2.609% |
| 38 | `COC1CCN(C(=O)Cn2nc(C)cc2C)CC1` | -0.1209% | -0.1837% | 0.9119% | 9.677% | 9.74% |
| 39 | `Cc1ccc(-c2cc(C(=O)NCCCc3csc(N)n3)[nH]n2)o1` | 9.524% & 21.76% | 1.043% | -0.6403% | 19.18% | 7.65% |
| 40 | `CCc1ncncc1C(=O)NC1CCc2nc(C)cn2C1` (configuration not stated) | 1.044% | 0.627% | -34.67% | 7.965% | 6.122% |
| 41 | `CCc1nc(C2CCCN2c2ncc(C(F)(F)F)cc2Cl)no1` (configuration not stated) | 5.353% | 2.468% | -6.176% | 10.34% | 1.571% |
| 42 | `CC(C)CNC(=O)c1nn(C)c(NC(=O)Cc2ccccc2)c1F` | 1.908% | 0.75% | 5.727% | 19.35% | 6.736% |
| 43 | `O=S(=O)(CC1CCCCO1)Nc1cc(F)ccc1-n1cccn1` (configuration not stated) | 2.335% | 2.089% | 3.26% | -6.306% | 3.333% |
| 44 | `CC(C)(C)CN1CCN(CC2CC2)C(CCO)C1` (configuration not stated) | -8.971% | -1.342% | -5.277% | 13.11% | 3.004% |
| 45 | `Cc1ccccc1C(=O)N1CCCn2cnc(CN3CCCC3=O)c2C1` | 2.469% | -2.632% | -0.0181% | 11.11% | 3.738% |
| 46 | `CCNC(=O)Nc1ccc(N2CCC(OC)CC2)c(C(F)(F)F)c1` | 3.893% | -3.249% | 0.2744% | 15.71% | 1.064% |
| 47 | `O=C(Cc1ccc(O)cc1)N1CCCC(O)(CN2CCOCC2)CC1` (configuration not stated) | 19.11% | 0.7026% | 12.56% | 9.929% | 13.16% |
| 48 | `Cc1ncc(CNC(=O)CCc2ccccc2F)c(C2CCCN2C)n1` (configuration not stated) | 1.453% | - | 2.367% | 16.49% | 6.667% |

3 of the entries, repeated:

SMILES	CoaBC	MtTrpRS	ClpP1P2	LiHisRS	TcHisRS
CNC(=O)N1CCOCC1c1c(C)nn(C)c1C (configuration not stated)	3.563%	-1.067%	16.48%	12.4%	15.48%
CCc1nc(C2CCCN2c2ncc(C(F)(F)F)cc2Cl)no1 (configuration not stated)	5.353%	2.468%	-6.176%	10.34%	1.571%
Cc1nccn1-c1ccc(NC(=O)C2CCCN2Cc2c[nH]cn2)cc1 (configuration not stated)	4.628%	12.01%	-5.258%	-5.128%	0.5618%